Paper PMC10279913
Read-outs that look alike come from different tables or passages of the source. Results are given in words; binding and its absence hold for the method and conditions named. In cells and extracts the contact can be indirect. Some entries that bind do so weakly or less than the wild type. Where a sequence is shown, tags or fusion partners need not be part of it.

Protein sequences, listed by entry. Tags and fused reporters are not part of them. Residues count along the entry.
UniProt O60488, residues 42-711: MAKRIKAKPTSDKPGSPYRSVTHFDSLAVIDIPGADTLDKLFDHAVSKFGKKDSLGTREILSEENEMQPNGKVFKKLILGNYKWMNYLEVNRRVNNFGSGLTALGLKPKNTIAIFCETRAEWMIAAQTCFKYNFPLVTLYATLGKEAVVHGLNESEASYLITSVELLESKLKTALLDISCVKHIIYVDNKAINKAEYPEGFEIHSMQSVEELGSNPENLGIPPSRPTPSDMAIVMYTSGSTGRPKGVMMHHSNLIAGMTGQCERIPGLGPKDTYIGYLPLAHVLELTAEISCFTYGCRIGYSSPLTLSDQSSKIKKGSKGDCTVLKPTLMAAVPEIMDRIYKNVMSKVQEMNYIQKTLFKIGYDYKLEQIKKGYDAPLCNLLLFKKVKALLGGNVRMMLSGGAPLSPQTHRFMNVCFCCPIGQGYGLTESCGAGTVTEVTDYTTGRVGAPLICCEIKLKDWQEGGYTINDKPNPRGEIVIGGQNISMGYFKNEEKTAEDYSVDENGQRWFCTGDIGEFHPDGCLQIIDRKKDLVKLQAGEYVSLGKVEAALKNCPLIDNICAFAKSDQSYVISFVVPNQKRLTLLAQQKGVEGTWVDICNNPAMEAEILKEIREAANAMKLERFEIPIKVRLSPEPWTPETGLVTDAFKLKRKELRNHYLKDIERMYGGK

Assays:
[1] = target: T1, VN173-HA-hAdipoR2-cMYC (human) (UniProt Q86V24); experiment: split reporter; BiFC with Venus fragments VN173 and VC155 in transfected HEK293 cells; live imaging 24 h after transfection, 37 °C, 5% CO2
T1 sequence: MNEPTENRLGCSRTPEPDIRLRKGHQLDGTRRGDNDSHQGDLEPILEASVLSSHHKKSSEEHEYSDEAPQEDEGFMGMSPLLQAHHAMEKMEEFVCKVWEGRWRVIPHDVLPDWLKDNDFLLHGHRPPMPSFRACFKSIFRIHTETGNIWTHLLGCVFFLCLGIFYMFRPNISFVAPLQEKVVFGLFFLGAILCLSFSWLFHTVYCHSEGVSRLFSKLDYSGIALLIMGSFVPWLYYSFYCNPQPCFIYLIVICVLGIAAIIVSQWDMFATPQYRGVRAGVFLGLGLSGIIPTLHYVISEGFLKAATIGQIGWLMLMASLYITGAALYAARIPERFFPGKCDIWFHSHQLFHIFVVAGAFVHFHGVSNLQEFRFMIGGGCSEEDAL

[2] = target: T1, VN173-HA-hAdipoR2-cMYC (human); experiment: as above; remark: listed apart in the source

For “hACSL4_v1-FLAG-VC155 (from UniProt O60488-2 1-670) (enzyme)”, the binding [1] was “binds”.

B1: FLAG-hHACD3-VC155 (enzyme, UniProt Q9P035 1-362)
chain: MENQVLTPHVYWAQRHRELYLRVELSDVQNPAISITENVLHFKAQGHGAKGDNVYEFHLEFLDLVKPEPVYKLTQRQVNITVQKKVSQWWERLTKQEKRPLFLAPDFDRWLDESDAEMELRAKEEERLNKLRLESEGSPETLTNLRKGYLFMYNLVQFLGFSWIFVNLTVRFCILGKESFYDTFHTVADMMYFCQMLAVVETINAAIGVTTSPVLPSLIQLLGRNFILFIIFGTMEEMQNKAVVFFVFYLWSAIEIFRYSFYMLTCIDMDWKVLTWLRYTLWIPLYPLGCLAEAVSVIQSIPIFNETGRFSFTLPYPVKIKVRFSFFLQIYLIMIFLGLYINFRHLYKQRRRRYGQKKKKIH
For B1, the binding [2] was “binds”.
